From PubChem BioAssay AID504834 (National Center for Advancing Translational Sciences (NCATS), 2011)
About 22,000 (6.9%) of roughly 320,000 compounds were called active. The shares of active, inactive and inconclusive entries below differ from those in the screen. Calls follow the shape of the dose curve; as a rule, active = well fitted inhibition curve with a large enough effect; inconclusive = small, poorly fitted or top-dose-only effect, or another doubt; inactive = no such curve, though single readings can be large or run the other way. A potency beside an inconclusive call is a rough fit, not a confirmed value.
Potency is read from the fitted curve at half-maximal effect.

Test: Primary qHTS for delayed death inhibitors of the malarial parasite plastid, 96 hour incubation
Conditions: P. falciparum luciferase reporter growth; series mostly up to 28.7 µM
Outline: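 Delayed-death screen, second-generation endpoint: infected erythrocytes, 2% hematocrit, 0.05% parasitemia final; 96 hours at 37 C, 5% CO2; luciferase detection reagent; luminescence decrease equals reduced growth.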
In the case of `Cc1cc(=O)[nH]c(SCC(=O)NC(c2ccccc2)c2ccccc2)n1`, the Potency is reported as inconclusive: 7.38 µM [inhibitor, single point].
With `Cc1noc(C)c1CN(C(=S)NC1CC1)c1ccccc1` the Potency was “inactive”.
With `COc1cccc(NC(=O)NCc2cccn2C)c1` the Potency was inconclusive: 10.4 µM [inhibitor, partial curve, poor fit].
In the case of `Cc1ccccc1NC(=O)/C(=C/c1ccco1)c1ccccc1`, the Potency is reported as inconclusive: 11.7 µM [inhibitor, single point].
With `COc1ccc(-c2coc3cc4oc(=O)cc(C)c4cc23)cc1F` the Potency was inconclusive: 0.465 µM [inhibitor, full curve, poor fit].
For `Cc1cccc(OCc2nnc(SCC(=O)N3c4ccccc4CCc4ccccc43)o2)c1`, the Potency was inconclusive: 10.4 µM [inhibitor, partial curve, poor fit].
With `CC1=C(C(=O)OCc2ccccc2)C(c2ccsc2)C(C#N)=C(N)O1` (stereo not given) the Potency was inconclusive: 18.5 µM [inhibitor, single point].
For `Cc1c(NC(=O)C2CCN(S(=O)(=O)c3ccccc3)CC2)c(=O)n(-c2ccccc2)n1C`, the Potency was inconclusive: 18.5 µM [inhibitor, single point].
In the case of `CCOc1ccccc1C(=O)OCC(=O)Nc1cc(S(=O)(=O)N2CCOCC2)ccc1C`, the Potency is reported as “inactive”.
In the case of `CCOC(=O)c1cnc2c(-c3ccccc3)c(C)nn2c1N`, the Potency is reported as inconclusive: 18.5 µM [inhibitor, single point].
In the case of `COc1ccc(OCC(=O)NNC(=O)c2cccc(S(=O)(=O)N(C)C)c2)cc1`, the Potency is reported as “inactive”.
With `CN(Cc1ccccc1)C1CCN(Cc2ccccc2[N+](=O)[O-])CC1` the Potency was “inactive”.
With `CC(=O)N1CCc2cc(S(=O)(=O)NC(C(=O)Nc3nc(C)cs3)C(C)C)ccc21` (stereo not given) the Potency was “inactive”.
For `Cc1ccc(C2C(C(=O)c3ccco3)=C(O)C(=O)N2c2nnc(C)s2)cc1` (stereo not given), the Potency was “inactive”.
In the case of `Cn1c(C(=O)NCCc2c[nH]c3ccccc23)cc2sccc21`, the Potency is reported as “inactive”.
With `O=C(Nc1ccc(S(=O)(=O)N2CCOCC2)cc1)c1cc([N+](=O)[O-])ccc1Cl` the Potency was inconclusive: 18.5 µM [inhibitor, single point].
For `CCOc1ccc(NC(=O)c2cc(OC)nc3ccccc23)cc1`, the Potency was “inactive”.
With `O=C(NC(=S)Nc1ccccc1N1CCCC1)c1ccco1` the Potency was inconclusive: 18.5 µM [inhibitor, single point].
For `Cc1ccc(CSCCNC(=O)c2ccc(NS(C)(=O)=O)cc2)cc1`, the Potency was “inactive”.
With `COc1ccc(CNC(=O)CCSc2nc(-c3ccc4c(c3)OCO4)cc(C(F)(F)F)n2)cc1` the Potency was inconclusive: 14.7 µM [inhibitor, single point].
With `COc1ccccc1C(=O)NNC(=O)c1cccc(C)c1` the Potency was inconclusive: 3.7 µM [inhibitor, single point].
With `CCOC(=O)/C(C#N)=C/c1cn(CCC(=O)O)nc1-c1ccc(OC)cc1` the Potency was inconclusive: 18.5 µM [inhibitor, single point].
With `CCCCCCCNC(=O)C1(CC2CC(c3ccc(Cl)cc3)=NO2)CCN(C(=O)Cc2ccc(F)cc2)CC1` (stereo not given) the Potency was active: 11.7 µM.
For `N#Cc1ccc(OCC(=O)N2CCN(C(=O)c3ccco3)CC2)cc1`, the Potency was “inactive”.
With `COc1ccc(C(=O)N=C2SC3CS(=O)(=O)CC3N2Cc2ccc(F)cc2)cc1` (stereo not given) the Potency was “inactive”.
In the case of `O=C(NC1CCCCC1)C(c1ccc(F)cc1)N(CCc1ccccc1)C(=O)CN1C(=O)c2ccccc2S1(=O)=O` (stereo not given), the Potency is reported as inconclusive: 6.57 µM [inhibitor, partial curve, poor fit].
With `CCCCN(C(=O)CSc1nnc(-c2ccccc2OC)n1C)c1c(N)n(Cc2ccccc2)c(=O)[nH]c1=O` the Potency was inconclusive: 2.94 µM [inhibitor, partial curve].
For `CC(C)(C)OC(=O)NCc1ccc(CNC(=O)c2[nH]cnc2C(=O)N[C@@H](Cc2ccccc2)C(=O)OC(C)(C)C)cc1`, the Potency was inconclusive: 1.17 µM [inhibitor, partial curve].
In the case of `COc1cccc(/C=C/C(=O)Nc2cc(S(=O)(=O)N3CCOCC3)ccc2OC)c1`, the Potency is reported as “inactive”.
With `O=C(c1ccc(COc2ccc(Cl)cc2Cl)o1)N1CCCC1` the Potency was “inactive”.
With `C[C@@H]1[C@H](O)C[C@@]23COC(=O)C2=CCCC3[C@@]1(C)CCC1COC(=O)C1` (stereo not given in full) the Potency was active: 0.0026 µM.
For `CC(=O)c1ccc(NC(=O)C(C)Sc2n[nH]c(-c3cccnc3)n2)cc1` (stereo not given), the Potency was inconclusive: 18.5 µM [inhibitor, single point].
In the case of `COc1ccc(C(=O)NCC2(c3ccccc3)CCCC2)c(OC)c1`, the Potency is reported as inconclusive: 8.28 µM [inhibitor, partial curve].
In the case of `O=S(=O)(c1cccc(C(F)(F)F)c1)N1CCN(C(=S)NCc2ccco2)CC1`, the Potency is reported as active: 2.33 µM.
In the case of `CCOc1cccc(C2C(C(=O)c3ccc(C)o3)=C(O)C(=O)N2Cc2ccncc2)c1` (stereo not given), the Potency is reported as inconclusive: 18.5 µM [inhibitor, single point].
In the case of `CCC(C)(C)c1ccc(Oc2ccc(NC(=O)COC(=O)C3=COCCO3)cc2)cc1`, the Potency is reported as inconclusive: 11.7 µM [inhibitor, single point].
In the case of `COc1cccc(-c2nnc(NC(=O)Cc3cccs3)s2)c1`, the Potency is reported as “inactive”.
With `Cc1c(C(=O)Nc2ccc3nc(N4CCOCC4)sc3c2)oc2ccccc12` the Potency was inconclusive: 8.28 µM [inhibitor, partial curve].
For `O=C(Nc1ccccc1C(=O)N1CCOCC1)c1ccc([N+](=O)[O-])cc1`, the Potency was inconclusive: 10.4 µM [inhibitor, single point].
In the case of `COc1cccc(C2C3=C(Nc4[nH]n(-c5ccccc5)c(=O)c42)c2ccccc2C3=O)c1` (stereo not given), the Potency is reported as “inactive”.
For `CCOC(=O)C1CCN(C2=NC(=O)/C(=C/c3ccc(Cl)cc3)S2)CC1`, the Potency was “inactive”.
In the case of `Cc1cccc(CCNC(=O)CC2C(=O)NCCN2Cc2ccccc2C)n1` (stereo not given), the Potency is reported as active: 11.7 µM.
For `O=C(NC1CCCC1)C(c1cccnc1)N(C(=O)c1csnn1)C1CCCC1` (stereo not given), the Potency was inconclusive: 18.5 µM [inhibitor, single point].
In the case of `CCCCCn1c(=O)c(C(=O)NCc2ccccc2Cl)c(O)c2ccccc21`, the Potency is reported as inconclusive: 11.7 µM [inhibitor, single point].
In the case of `CCC(=O)NCc1ccc(-c2nc3ncccc3o2)cc1`, the Potency is reported as inconclusive: 10.4 µM [inhibitor, partial curve, poor fit].
